Data from patent publication US7741295B2, “Sir2 products and activities” (Albert Einstein College of Medicine of Yeshiva University, priority 2001, dated 2010).
Values joined by “and” are separate entries in the source; they are usually repeats but may differ in a detail not shown here. Equal entries are not always repeated. For at least one compound, name, drawing or mass did not settle the structure.

Tests used:
[1] = Interconversion rates of 2′- and 3′-AADPR (HPLC, NMR); format: physicochemical
Protocol: Interconversion rates of 2′- and 3′-AADPR. Sample of both 2′- and 3′-AADPR were incubated at 15° C. and analyzed by HPLC at 40 min intervals (C-18 column; 50 mM ammonium acetate pH 5.0). The percent of the 3′-isomer at a given time was fit to the equation 3′-AADPR (%)=Pa exp (−kt)+Pf where Pa+Pf=P0; where Pa is the percent of the 3′-isomer above equilibrium at time=0, t is time and k is the first order rate constant for the conversion. Pf is the percent at equilibrium and P0 is the initial percent. HPLC and NMR analysis established the 2′- and 3′-isomers concentration as a function of time. NMR was in 10% d4-methanol/90% D2O at 0° C. or in 100% D2O at 20° C.

[2] = biological target: T1, Sir2A (Homo sapiens, UniProt Q8IXJ6); experiment: Activity of Sir2A on histone and p53 substrates (deacetylation); format: biochemical
T1 construct: made in house
T1 sequence (Q8IXJ6 1-389): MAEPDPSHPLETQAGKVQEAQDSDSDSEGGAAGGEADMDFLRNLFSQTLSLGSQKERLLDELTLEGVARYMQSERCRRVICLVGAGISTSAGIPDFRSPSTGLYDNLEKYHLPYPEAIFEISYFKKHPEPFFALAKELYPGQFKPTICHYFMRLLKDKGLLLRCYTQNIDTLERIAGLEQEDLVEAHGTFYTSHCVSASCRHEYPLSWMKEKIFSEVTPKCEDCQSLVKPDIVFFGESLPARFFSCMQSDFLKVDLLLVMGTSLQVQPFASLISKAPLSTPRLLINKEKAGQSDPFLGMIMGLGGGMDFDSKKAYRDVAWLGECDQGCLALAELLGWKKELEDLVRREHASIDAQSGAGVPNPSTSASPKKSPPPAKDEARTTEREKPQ

SMILES: CC(=O)O[C@H]1C(O)O[C@H](COP(=O)(O)OP(=O)(O)OC[C@H]2O[C@@H](n3cnc4c(N)ncnc43)[C@H](O)[C@@H]2O)[C@H]1O (stereo partly drawn) [2′-AADPR, 2′-O-acetyl-ADP-ribose]
- equilibrium ratio 2′-AADPR:3′-AADPR ([1]; integrations of HPLC peaks, 15° C.): ~67:47 and 47:67

SMILES: CC(=O)O[C@@H]1[C@@H](COP(=O)(O)OP(=O)(O)OC[C@H]2O[C@@H](n3cnc4c(N)ncnc43)[C@H](O)[C@@H]2O)OC(O)[C@@H]1O (stereo partly drawn) [3′-AADPR, 3′-O-acetyl-ADP-ribose]
- equilibrium of conversion of 3′- to 2′-isomers ([1]; 3′:2′): 67:47

SMILES: NC(=O)c1ccc[n+]([C@@H]2O[C@H](COP(=O)([O-])OP(=O)(O)OC[C@H]3O[C@@H](n4cnc5c(N)ncnc54)[C@H](O)[C@@H]3O)[C@@H](O)[C@H]2O)c1 [NAD^+, nicotinamide adenine dinucleotide]
- NAD^+ products analyzed (AADPR and nicotinamide products observed by HPLC/MS) [2]: +
